In this data set the test system is Nkx2.5. In words: EMSA. The following applies: nuclear extract; 40 mM KCl, 15 mM HEPES pH 8.0, 1 mM EDTA, 0.5 mM DTT, 2 mM MgCl2, 5% glycerol, 10 ng/ul poly dI/dC, 0.1 mg/ml BSA, 30 min, RT; 4% PAGE in 0.5x TBE; protein in a lysate after overexpression; label: biotin (PCR primers).

For at least one entry, the source does not settle the construct or the ends of the probe. Where cells or extracts were used, other partners may take part.

For “CGGTGTCTGCTATCACTCAGTTTCATCCCTTTCTTCCCAAATGGCCAGTTTCATGTTGTGTATCTTGACAGTGACTCCCAACCAGAGACTCCTGTTAAGGGAACTTGTCAGTCATAATAGACAATAAGTGAACTTCTTGTTCGGGGTGCTCAATAATTTGCT (double strand) [free Ttn DNA]”, the binding result is “binds”.

Values taken from publication PMC6796926, “Pioneering function of Isl1 in the epigenetic control of cardiomyocyte cell fate”.
